Data taken from the supplement of paper PMC10849652.
Some of the results follow.

Amino acid sequences for entries named in this document (tags omitted). A change or cut given only in a name is not applied to a line headed by its entry.
UniProt P0C0S5, whole entry, looked up: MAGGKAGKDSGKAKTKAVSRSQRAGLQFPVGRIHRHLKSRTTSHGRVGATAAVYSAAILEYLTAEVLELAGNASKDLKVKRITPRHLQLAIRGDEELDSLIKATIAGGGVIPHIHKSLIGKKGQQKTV
UniProt Q969F1: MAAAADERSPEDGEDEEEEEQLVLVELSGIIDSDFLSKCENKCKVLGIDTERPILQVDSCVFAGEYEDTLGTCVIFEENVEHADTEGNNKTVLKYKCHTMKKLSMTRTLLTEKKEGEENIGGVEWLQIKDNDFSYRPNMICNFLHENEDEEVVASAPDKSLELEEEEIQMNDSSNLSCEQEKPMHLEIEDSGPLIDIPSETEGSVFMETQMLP
UniProt P28161: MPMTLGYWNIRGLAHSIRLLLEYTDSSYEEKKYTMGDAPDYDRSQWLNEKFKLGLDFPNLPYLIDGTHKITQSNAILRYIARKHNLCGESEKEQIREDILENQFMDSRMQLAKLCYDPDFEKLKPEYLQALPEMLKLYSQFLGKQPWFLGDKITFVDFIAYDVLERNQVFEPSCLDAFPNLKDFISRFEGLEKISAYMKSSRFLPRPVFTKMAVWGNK
UniProt P10412, whole entry, looked up: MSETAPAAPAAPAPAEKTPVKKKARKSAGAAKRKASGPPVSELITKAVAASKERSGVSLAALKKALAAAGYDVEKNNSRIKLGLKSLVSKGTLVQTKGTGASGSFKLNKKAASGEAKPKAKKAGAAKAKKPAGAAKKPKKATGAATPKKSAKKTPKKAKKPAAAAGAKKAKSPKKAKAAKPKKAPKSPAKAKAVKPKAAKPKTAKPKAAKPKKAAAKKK
UniProt P06396, whole entry, looked up: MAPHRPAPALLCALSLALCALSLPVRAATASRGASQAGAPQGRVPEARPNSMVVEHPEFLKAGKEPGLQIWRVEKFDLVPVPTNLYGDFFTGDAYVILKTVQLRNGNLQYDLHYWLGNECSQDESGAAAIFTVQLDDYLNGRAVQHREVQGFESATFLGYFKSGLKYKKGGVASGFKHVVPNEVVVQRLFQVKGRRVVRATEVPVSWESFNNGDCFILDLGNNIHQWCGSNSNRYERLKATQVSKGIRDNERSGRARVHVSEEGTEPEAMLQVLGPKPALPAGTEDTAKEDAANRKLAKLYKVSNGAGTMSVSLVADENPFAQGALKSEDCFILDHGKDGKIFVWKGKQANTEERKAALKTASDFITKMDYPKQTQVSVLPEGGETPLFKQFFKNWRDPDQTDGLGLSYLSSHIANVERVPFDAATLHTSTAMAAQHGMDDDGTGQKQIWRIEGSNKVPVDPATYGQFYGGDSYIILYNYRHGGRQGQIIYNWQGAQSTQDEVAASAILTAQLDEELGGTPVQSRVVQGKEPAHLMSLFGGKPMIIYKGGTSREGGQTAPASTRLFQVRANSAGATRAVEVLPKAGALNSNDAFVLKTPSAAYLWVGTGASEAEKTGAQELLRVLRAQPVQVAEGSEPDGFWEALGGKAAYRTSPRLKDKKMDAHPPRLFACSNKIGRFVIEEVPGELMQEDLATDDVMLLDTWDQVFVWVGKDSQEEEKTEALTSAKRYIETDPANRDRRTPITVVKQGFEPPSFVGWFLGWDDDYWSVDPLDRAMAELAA
UniProt P52655, whole entry, looked up: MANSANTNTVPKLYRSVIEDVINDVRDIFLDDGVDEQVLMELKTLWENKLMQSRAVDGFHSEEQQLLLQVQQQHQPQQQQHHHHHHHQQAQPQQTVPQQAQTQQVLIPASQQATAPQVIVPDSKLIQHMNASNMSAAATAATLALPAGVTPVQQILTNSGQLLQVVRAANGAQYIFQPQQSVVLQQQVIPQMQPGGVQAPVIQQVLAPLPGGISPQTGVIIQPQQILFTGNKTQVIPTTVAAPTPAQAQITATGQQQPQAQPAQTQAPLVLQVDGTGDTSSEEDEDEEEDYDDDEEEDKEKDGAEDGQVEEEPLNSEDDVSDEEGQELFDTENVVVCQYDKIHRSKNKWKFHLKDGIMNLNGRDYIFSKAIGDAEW
UniProt O00178: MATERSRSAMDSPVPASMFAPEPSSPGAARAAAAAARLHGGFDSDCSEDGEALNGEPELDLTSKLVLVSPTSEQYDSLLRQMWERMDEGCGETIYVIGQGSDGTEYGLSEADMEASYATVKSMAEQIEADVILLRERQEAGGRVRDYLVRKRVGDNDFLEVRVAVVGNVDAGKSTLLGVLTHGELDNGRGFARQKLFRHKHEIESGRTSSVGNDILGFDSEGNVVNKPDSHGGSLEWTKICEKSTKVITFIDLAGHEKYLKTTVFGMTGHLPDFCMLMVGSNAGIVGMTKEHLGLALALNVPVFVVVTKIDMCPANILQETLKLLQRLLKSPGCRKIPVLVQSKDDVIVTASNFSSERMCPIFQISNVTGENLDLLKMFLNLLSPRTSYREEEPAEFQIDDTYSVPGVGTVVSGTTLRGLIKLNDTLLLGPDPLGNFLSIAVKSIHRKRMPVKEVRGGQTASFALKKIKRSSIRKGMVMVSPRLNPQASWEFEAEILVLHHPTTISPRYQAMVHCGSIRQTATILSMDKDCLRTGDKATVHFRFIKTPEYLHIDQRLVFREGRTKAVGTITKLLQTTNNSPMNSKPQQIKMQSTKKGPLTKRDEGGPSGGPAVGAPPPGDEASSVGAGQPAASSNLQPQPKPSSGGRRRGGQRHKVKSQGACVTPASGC
UniProt Q9UQL6: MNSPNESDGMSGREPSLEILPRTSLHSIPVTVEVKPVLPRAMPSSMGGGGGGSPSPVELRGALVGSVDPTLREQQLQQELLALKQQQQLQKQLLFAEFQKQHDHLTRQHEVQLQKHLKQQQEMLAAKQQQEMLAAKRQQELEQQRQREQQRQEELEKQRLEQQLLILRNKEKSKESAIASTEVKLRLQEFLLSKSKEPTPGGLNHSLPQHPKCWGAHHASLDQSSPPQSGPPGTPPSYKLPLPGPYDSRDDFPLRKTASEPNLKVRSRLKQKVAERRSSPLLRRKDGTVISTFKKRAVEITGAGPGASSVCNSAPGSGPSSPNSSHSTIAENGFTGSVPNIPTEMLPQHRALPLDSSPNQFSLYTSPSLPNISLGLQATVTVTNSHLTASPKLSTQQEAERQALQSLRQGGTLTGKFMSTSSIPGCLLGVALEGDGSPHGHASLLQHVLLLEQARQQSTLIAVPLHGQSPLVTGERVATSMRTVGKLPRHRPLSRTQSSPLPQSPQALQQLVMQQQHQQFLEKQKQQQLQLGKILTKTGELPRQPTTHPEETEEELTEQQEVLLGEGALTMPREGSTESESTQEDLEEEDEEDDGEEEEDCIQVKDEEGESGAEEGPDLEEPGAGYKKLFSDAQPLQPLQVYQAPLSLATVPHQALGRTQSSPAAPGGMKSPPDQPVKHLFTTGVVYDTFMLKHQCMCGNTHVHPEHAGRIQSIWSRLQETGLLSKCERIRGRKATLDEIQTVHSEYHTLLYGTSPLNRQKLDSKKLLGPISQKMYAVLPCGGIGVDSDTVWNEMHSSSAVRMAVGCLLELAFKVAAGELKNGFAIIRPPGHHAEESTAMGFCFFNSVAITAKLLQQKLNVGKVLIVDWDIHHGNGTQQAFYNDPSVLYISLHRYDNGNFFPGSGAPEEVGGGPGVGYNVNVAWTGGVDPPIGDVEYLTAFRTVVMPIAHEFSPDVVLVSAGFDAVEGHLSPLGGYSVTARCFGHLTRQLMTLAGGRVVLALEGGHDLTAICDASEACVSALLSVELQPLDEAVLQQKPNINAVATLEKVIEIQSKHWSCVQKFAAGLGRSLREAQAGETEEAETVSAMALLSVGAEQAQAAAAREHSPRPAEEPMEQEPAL
UniProt Q8IYD1, whole entry, looked up: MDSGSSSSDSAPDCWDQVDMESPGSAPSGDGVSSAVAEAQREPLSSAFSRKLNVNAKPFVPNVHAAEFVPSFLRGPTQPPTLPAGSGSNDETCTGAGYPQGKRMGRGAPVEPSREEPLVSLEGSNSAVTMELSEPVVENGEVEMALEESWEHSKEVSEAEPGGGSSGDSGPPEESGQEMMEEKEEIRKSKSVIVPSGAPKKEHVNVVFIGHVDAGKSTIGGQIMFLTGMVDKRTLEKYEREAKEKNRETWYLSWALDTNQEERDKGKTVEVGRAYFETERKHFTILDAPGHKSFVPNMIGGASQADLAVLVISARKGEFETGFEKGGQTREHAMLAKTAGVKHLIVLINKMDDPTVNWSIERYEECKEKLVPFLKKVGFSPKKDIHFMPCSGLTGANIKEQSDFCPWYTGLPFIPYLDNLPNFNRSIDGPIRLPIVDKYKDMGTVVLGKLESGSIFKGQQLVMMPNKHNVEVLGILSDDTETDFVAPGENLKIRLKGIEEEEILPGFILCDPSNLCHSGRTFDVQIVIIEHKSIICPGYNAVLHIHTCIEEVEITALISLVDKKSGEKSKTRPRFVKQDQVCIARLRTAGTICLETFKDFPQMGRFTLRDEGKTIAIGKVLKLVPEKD
UniProt Q8TAA5: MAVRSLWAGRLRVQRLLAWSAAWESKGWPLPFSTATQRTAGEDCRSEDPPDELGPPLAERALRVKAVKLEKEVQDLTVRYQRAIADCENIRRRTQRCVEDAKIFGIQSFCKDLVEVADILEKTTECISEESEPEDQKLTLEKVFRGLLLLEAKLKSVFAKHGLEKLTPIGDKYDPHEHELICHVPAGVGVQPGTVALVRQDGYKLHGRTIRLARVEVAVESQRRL
UniProt P32780: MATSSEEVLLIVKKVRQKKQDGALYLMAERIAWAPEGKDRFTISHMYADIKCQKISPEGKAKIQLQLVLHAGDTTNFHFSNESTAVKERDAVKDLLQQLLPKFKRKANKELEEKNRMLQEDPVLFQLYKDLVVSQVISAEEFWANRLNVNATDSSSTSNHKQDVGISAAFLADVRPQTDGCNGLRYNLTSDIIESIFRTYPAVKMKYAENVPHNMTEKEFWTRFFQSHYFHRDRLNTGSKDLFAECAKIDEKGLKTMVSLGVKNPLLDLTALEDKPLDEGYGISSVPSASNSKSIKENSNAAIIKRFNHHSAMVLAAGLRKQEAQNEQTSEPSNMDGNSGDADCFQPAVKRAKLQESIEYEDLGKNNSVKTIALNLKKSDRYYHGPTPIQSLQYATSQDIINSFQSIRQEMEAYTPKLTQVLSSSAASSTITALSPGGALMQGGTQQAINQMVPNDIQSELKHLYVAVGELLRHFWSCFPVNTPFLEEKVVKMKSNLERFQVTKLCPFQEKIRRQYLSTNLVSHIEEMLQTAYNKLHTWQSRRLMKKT
UniProt Q8N4P3, whole entry, looked up: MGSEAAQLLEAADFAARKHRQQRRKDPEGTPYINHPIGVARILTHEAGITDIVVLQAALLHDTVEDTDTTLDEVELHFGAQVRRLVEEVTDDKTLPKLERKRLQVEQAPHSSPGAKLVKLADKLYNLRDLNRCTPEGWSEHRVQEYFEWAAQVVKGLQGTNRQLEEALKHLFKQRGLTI
UniProt P29083: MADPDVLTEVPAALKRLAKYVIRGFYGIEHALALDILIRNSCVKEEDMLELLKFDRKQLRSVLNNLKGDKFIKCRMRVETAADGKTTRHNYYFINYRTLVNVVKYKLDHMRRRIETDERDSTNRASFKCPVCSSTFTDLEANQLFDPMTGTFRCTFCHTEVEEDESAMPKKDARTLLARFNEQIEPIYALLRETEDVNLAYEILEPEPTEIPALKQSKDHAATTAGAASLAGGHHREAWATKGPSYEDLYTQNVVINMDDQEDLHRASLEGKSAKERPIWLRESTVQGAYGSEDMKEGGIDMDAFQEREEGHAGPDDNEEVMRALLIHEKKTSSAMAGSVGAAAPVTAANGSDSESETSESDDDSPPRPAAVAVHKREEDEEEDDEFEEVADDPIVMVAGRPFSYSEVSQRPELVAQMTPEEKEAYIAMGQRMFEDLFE
UniProt Q9P035: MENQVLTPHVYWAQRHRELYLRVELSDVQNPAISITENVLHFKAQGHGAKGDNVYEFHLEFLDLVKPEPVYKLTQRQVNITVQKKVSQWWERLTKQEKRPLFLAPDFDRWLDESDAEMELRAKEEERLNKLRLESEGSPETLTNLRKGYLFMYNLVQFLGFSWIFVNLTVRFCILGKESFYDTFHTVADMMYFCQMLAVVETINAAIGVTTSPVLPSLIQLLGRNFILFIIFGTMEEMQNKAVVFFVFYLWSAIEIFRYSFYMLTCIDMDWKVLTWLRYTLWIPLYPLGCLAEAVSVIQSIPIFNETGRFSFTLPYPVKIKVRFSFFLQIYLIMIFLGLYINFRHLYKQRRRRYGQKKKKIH
UniProt O15379: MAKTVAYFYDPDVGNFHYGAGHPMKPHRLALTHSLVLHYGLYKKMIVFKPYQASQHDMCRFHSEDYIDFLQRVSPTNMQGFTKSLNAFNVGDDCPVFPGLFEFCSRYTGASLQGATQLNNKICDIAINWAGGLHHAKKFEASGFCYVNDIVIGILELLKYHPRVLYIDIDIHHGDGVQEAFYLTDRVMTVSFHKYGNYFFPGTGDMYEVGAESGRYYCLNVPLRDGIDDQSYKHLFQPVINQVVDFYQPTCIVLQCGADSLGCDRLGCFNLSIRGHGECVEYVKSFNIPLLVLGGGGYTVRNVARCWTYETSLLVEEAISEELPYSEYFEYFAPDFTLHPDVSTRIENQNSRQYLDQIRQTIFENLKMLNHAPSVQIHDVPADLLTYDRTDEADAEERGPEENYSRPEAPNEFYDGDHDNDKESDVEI

Legend:
Experiment in all cases: log2 fold change, soluble protein after heating vs DMSO (PISA); higher = thermal stabilisation; K562 lysate, 10 uM; active = over 0.2 and 3.5 SD of the protein, either way, in both replicates (recomputed)
erlotinib = compound: C#Cc1cccc(Nc2ncnc3cc(OCCOC)c(OCCOC)cc23)c1 [erlotinib]
In short: (§1)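 K562 pellets were dounce-homogenised in PBS pH 7.4 with 1 mM MgCl2, and the crude extract at 1 mg/mL protein was treated with 10 μM compound for 30 min. Aliquots were heated for 3 min across 48°C-58°C, pooled, and brought to 0.5% NP-40 at 4°C; soluble protein was the supernatant after 21,000xg for 90 min. Soluble protein was quantified by TMTpro 16plex LC-MS/MS with channel sums equalised, and reported as log2 fold change in thermal stability against DMSO controls, with values from duplicates.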

[1] = compound: C/C(=N\NC(=O)C1=CC(=CC=C1)S(=O)(=O)N2CCOCC2)/C3=C(C=CC(=C3)Cl)O
In short: as §1

[2] = compound: C1=CC(=CC=C1C2=NC3=C(N2)C=C(C=C3)C(=O)N)OC4=CC=C(C=C4)Cl
In short: as §1

[3] = compound: C1=CC2=C(C=CC(=C2)/C=C\3/C(=O)NC(=NCC4=CC=CS4)S3)N=C1
In short: as §1

[4] = compound: C1=CC2=NC=CN=C2C=C1/C=C/3\C(=O)NC(=O)S3
In short: as §1

[5] = compound: C1=CC=C(C=C1)C2=NC(=C(N2)C3=CC=NC=C3)C4=CC(=C(C=C4)Cl)O
In short: as §1

[6] = compound: C1=CC=C2C(=C1)C3=NNC4=CC=CC(=C43)C2=O
In short: as §1

[7] = compound: C1CCN(C1)C(=O)NC2=CC=CC(=C2)NC3=NC=C(C(=N3)NCCC4=CN=CN4)Br
In short: as §1

[8] = compound: C1CN(CCC1(CC2=CC=C(C=C2)Cl)N)C3=NC=NC4=C3C=CN4
In short: as §1

IRAK-1-4 Inhibitor I = compound: C1COCCN1CCN2C3=CC=CC=C3N=C2NC(=O)C4=CC(=CC=C4)[N+](=O)[O-] [IRAK-1-4 Inhibitor I]
In short: as §1

Measured: log2 fold change

H2AZ1 (UniProt P0C0S5)
inactive: erlotinib -0.006 | [1] 0.125 | [2] 0.125 | [3] -0.096 | [4] -0.005 | [5] 0.037 | [6] 0.058 | [7] 0.019 | [8] 0.008 | IRAK-1-4 Inhibitor I 0.053

GTF3C6 (UniProt Q969F1)
inactive: erlotinib 0.017 | [1] 0.014 | [2] 0.064 | [3] 0.014 | [4] 0.029 | [5] 0.035 | [6] 0.046 | [7] -0.074 | [8] 0.058 | IRAK-1-4 Inhibitor I 0.023

GSTM2 (UniProt P28161)
inactive: erlotinib -0.083 | [1] 0.041 | [2] -0.038 | [3] -0.007 | [4] 0.079 | [5] -0.008 | [6] -0.012 | [7] -0.021 | [8] -0.054 | IRAK-1-4 Inhibitor I 0.037

H1-4 (UniProt P10412)
inactive: erlotinib 0.005 | [1] -0.043 | [2] -0.022 | [3] -0.01 | [4] -0.012 | [5] 0.026 | [6] 0.036 | [7] -0.007 | [8] -0.004 | IRAK-1-4 Inhibitor I 0.02

GSN (UniProt P06396)
inactive: erlotinib -0.024 | [1] 0.148 | [2] 0.009 | [3] -0.006 | [4] -0.013 | [5] 0 | [6] -0.013 | [7] -0.019 | [8] -0.058 | IRAK-1-4 Inhibitor I -0.042

HAUS2 (UniProt Q9NVX0)
inactive: erlotinib 0 | [1] 0.045 | [2] -0.12 | [3] 0.116 | [4] -0.02 | [5] 0.03 | [6] 0.031 | [7] -0.015 | [8] 0.026 | IRAK-1-4 Inhibitor I 0.003

GUK1 isoform 2 (UniProt Q16774)
inactive: erlotinib -0.013 | [1] 0.003 | [2] 0.029 | [3] -0.007 | [4] 0.002 | [5] 0.012 | [6] -0.02 | [7] -0.03 | [8] 0.004 | IRAK-1-4 Inhibitor I -0.025

GTF2A1 (UniProt P52655)
inactive: erlotinib 0.031 | [1] -0.008 | [2] 0.015 | [3] 0.026 | [4] -0.01 | [5] -0.038 | [6] -0.061 | [7] -0.04 | [8] -0.01 | IRAK-1-4 Inhibitor I 0.033

GSK3B isoform 2 (UniProt P49841)
inactive: erlotinib 0.043 | [1] -0.323 | [2] 0.036 | [3] 0.145 | [4] 0.085 | [5] 0.459 | [6] 0.132 | [7] 0.202 | [8] -0.011 | IRAK-1-4 Inhibitor I -0.002

GTPBP1 (UniProt O00178)
inactive: erlotinib 0.011 | [1] -0.048 | [2] 0.024 | [3] 0.014 | [4] -0.007 | [5] 0.001 | [6] -0.01 | [7] -0.015 | [8] 0.009 | IRAK-1-4 Inhibitor I -0.018

HAGH (UniProt Q16775)
inactive: erlotinib 0.004 | [1] -0.064 | [2] 0.019 | [3] -0.019 | [4] 0.022 | [5] 0.004 | [6] -0.033 | [7] -0.018 | [8] 0.017 | IRAK-1-4 Inhibitor I 0.016

Quoted from the listing (two entries):
GSK3B isoform 2 (UniProt P49841)
inactive: erlotinib 0.043 | [1] -0.323 | [2] 0.036 | [3] 0.145 | [4] 0.085 | [5] 0.459 | [6] 0.132 | [7] 0.202 | [8] -0.011 | IRAK-1-4 Inhibitor I -0.002

GTPBP1 (UniProt O00178)
inactive: erlotinib 0.011 | [1] -0.048 | [2] 0.024 | [3] 0.014 | [4] -0.007 | [5] 0.001 | [6] -0.01 | [7] -0.015 | [8] 0.009 | IRAK-1-4 Inhibitor I -0.018

More results:

GTF2B (UniProt Q00403)
inactive: erlotinib 0.043 | [1] 0.031 | [2] -0.023 | [3] 0.011 | [4] 0.066 | [5] 0.039 | [6] -0.031 | [7] -0.023 | [8] 0.018 | IRAK-1-4 Inhibitor I -0.019

HDHD5 (UniProt Q9BXW7)
inactive: erlotinib -0.015 | [1] -0.038 | [2] 0.012 | [3] 0.07 | [4] 0.022 | [5] -0.006 | [6] -0.027 | [7] -0.023 | [8] -0.05 | IRAK-1-4 Inhibitor I 0.051

GYG2 (UniProt O15488)
inactive: erlotinib 0.014 | [1] -0.052 | [2] 0.025 | [3] -0.007 | [4] 0.016 | [5] -0.012 | [6] 0.133 | [7] -0.071 | [8] -0.017 | IRAK-1-4 Inhibitor I 0.011

HDAC5 isoform 3 (UniProt Q9UQL6)
inactive: erlotinib 0.042 | [1] 0.008 | [2] 0.044 | [3] 0.011 | [4] -0.04 | [5] 0.061 | [6] -0.097 | [7] -0.011 | [8] 0.036 | IRAK-1-4 Inhibitor I 0.011

GSPT2 (UniProt Q8IYD1)
inactive: erlotinib 0 | [1] 0.09 | [2] 0.035 | [3] -0.015 | [4] 0 | [5] -0.008 | [6] -0.005 | [7] 0.036 | [8] 0.019 | IRAK-1-4 Inhibitor I -0.039

HACL1 (UniProt Q9UJ83)
inactive: erlotinib -0.006 | [1] -0.031 | [2] 0.001 | [3] 0.006 | [4] -0.016 | [5] 0.017 | [6] -0.033 | [7] -0.013 | [8] 0.01 | IRAK-1-4 Inhibitor I 0.024

GRB2 (UniProt P62993)
inactive: erlotinib -0.017 | [1] -0.06 | [2] 0.02 | [3] 0.022 | [4] -0.008 | [5] 0.006 | [6] -0.013 | [7] 0.018 | [8] 0.002 | IRAK-1-4 Inhibitor I -0.009

GRPEL2 (UniProt Q8TAA5)
inactive: erlotinib 0.076 | [1] -0.112 | [2] 0.009 | [3] -0.02 | [4] 0.006 | [5] 0.012 | [6] -0.062 | [7] 0.025 | [8] -0.019 | IRAK-1-4 Inhibitor I 0.029

GSTP1 (UniProt P09211)
inactive: erlotinib -0.008 | [1] 0.035 | [2] -0.024 | [3] 0.036 | [4] 0.08 | [5] -0.002 | [6] 0.007 | [7] -0.022 | [8] -0.022 | IRAK-1-4 Inhibitor I 0

GTF2H1 (UniProt P32780)
inactive: erlotinib 0.044 | [1] 0.008 | [2] 0.012 | [3] -0.032 | [4] -0.011 | [5] 0.003 | [6] -0.013 | [7] 0.029 | [8] -0.005 | IRAK-1-4 Inhibitor I -0.019

HDDC3 (UniProt Q8N4P3)
inactive: erlotinib -0.041 | [1] 0.002 | [2] 0.006 | [3] 0.003 | [4] -0.024 | [5] -0.049 | [6] -0.032 | [7] -0.009 | [8] -0.039 | IRAK-1-4 Inhibitor I -0.044

GTF2E1 (UniProt P29083)
inactive: erlotinib 0.003 | [1] -0.028 | [2] 0.005 | [3] 0.013 | [4] -0.016 | [5] 0.013 | [6] 0.028 | [7] 0.001 | [8] 0.006 | IRAK-1-4 Inhibitor I 0.024

HEATR1 (UniProt Q9H583)
inactive: erlotinib 0.027 | [1] 0.01 | [2] -0.067 | [3] 0.096 | [4] 0.05 | [5] -0.013 | [6] -0.035 | [7] 0.007 | [8] 0.05 | IRAK-1-4 Inhibitor I -0.012

HADHA (UniProt P40939)
active: [2] 0.387
inactive: erlotinib -0.08 | [1] 0.042 | [3] 0.014 | [4] -0.087 | [5] -0.003 | [6] 0.026 | [7] -0.067 | [8] 0.04 | IRAK-1-4 Inhibitor I 0.031

HACD3 (UniProt Q9P035)
inactive: erlotinib 0.013 | [1] 0.022 | [2] -0.101 | [3] 0.037 | [4] -0.029 | [5] 0.004 | [6] -0.049 | [7] -0.04 | [8] 0.021 | IRAK-1-4 Inhibitor I 0.027

HDAC3 (UniProt O15379)
inactive: erlotinib 0.061 | [1] -0.035 | [2] 0.056 | [3] -0.008 | [4] -0.001 | [5] 0.01 | [6] 0.019 | [7] -0.017 | [8] 0.029 | IRAK-1-4 Inhibitor I 0.028

GSE1 (UniProt Q14687)
inactive: erlotinib 0.012 | [1] -0.022 | [2] 0.025 | [3] 0.003 | [4] -0.001 | [5] -0.013 | [6] -0.048 | [7] -0.032 | [8] -0.018 | IRAK-1-4 Inhibitor I -0.011

GTF3C4 (UniProt Q9UKN8)
inactive: erlotinib -0.007 | [1] -0.069 | [2] 0.023 | [3] 0.001 | [4] 0.007 | [5] -0.006 | [6] -0.002 | [7] -0.013 | [8] 0.003 | IRAK-1-4 Inhibitor I 0.002

H4C1 (UniProt P62805)
inactive: erlotinib 0.065 | [1] 0.499 | [2] -0.023 | [3] -0.042 | [4] -0.024 | [5] 0.252 | [6] -0.008 | [7] 0.067 | [8] -0.052 | IRAK-1-4 Inhibitor I -0.067
